Structures are written as SMILES.

Here are results for one molecule from patent US6140364A, “Arachidonic acid metabolite, 16-HETE” (The University of Vermont and State Agricultural College, priority 1996, dated 2000).

The nature of the data set: Amounts of HETE in intact human neutrophil phospholipids, GC/MS. The settings on record: following alkaline hydrolysis (0.1 N potassium hydroxide), three donors, average ± SEM.

Regarding `O=C(O)CCC/C=C\C/C=C\C/C=C\C/C=C\CCCCCO` [20-HETE, reference compound], the “amount of HETE released from neutrophil phospholipids” value was determined as 341±69 pg/10^8 cells.
